Measurements from “University of Dundee, Small-Polar-MMV Screening Library” (2021), ChEMBL document CHEMBL3988442.

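Assay of Toxoplasma gondii numbers, read through their beta-galactosidase reporter with a colour substrate. Concentration: 50 µM. Higher reads as fewer parasites (inferred from which compounds were picked for retests). Size under these conditions: about 18,000 compounds, about 170 of them at 50% or above in at least one test.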

Each number is a percent effect as filed.
How 0% and 100% were set is not recorded. Most values in the screen are low, and negative values occur.
Compounds were drawn at random from those tested, without regard to their results.

NCc1cccc(N2CCCCC2=O)c1 gave 8.452%.
CN(CC(F)(F)F)C(=O)CN1CCC[C@H]1CO gave 1.632%.
Cc1cnc(NCc2cccn2C)s1 gave -0.1981%.
COCCNC(=O)CN(C)Cc1ccccc1 gave -2.804%.
NC(=O)Cc1ccccc1NC(=O)NCc1cccs1 gave -5.373%.
CCN(Cc1cc(C)n[nH]1)CC1CCCO1 (stereo not given) gave -6.417%.
CCOc1ccccc1N1CCN(S(C)(=O)=O)CC1 gave 2.981%.
CC(C)C(CCO)NC(=O)c1nccc2ccccc12 (stereo not given) gave 6.898%.
CS(=O)(=O)NCC(=O)N1CCCC1C1CCCC1 (stereo not given) gave 3.973%.
O=C(NCCCN1CCCC1)c1cccnc1 gave 4.312%.
CC(CO)N(C)C(=O)c1cccc(-n2cccc2)c1 (stereo not given) gave 12.71%.
CCN(c1ccccc1C)S(C)(=O)=O gave 2.178%.
NCCCC(=O)Nc1cc(C(F)(F)F)c[nH]c1=O gave -22.31%.
c1nc(N2CCNCC2)c2sccc2n1 gave 52.15%.
CN(C)C[C@@H]1CN(c2cccc(C#N)n2)C[C@@H]1CO gave -13.85%.
CC(=O)N1CCN(Cc2cncs2)C(C)(C)C1 gave -9.405%.
O=C(NCC1CCCO1)c1cccc2cccnc12 (stereo not given) gave -1.674%.
NC(=O)C1CCN(Cc2csc(Br)c2)CC1 gave -2.277%.
COCCCNC(=O)CN1CCn2cccc2C1C (stereo not given) gave 0.1845%.
NC(=O)CC(N)C1CCCCC1 (stereo not given) gave 4.039%.
Cc1ccc(NC(=O)NCC(=O)NC(C)(C)C)cc1 gave -6.587%.
c1coc(C2CCCN2)c1 (stereo not given) gave 4.185%.
Cc1ccnc(NC(=O)N2CCCC(CO)C2)c1 (stereo not given) gave -1.908%.
CCOc1ccc(S(=O)(=O)NC2CCN(C)CC2)cc1 gave 5.68%.
COc1ccnc(NC(C(N)=O)C(C)C)n1 (stereo not given) gave -13.78%.
CSc1ccncc1N gave 0.3926%.
CS(=O)(=O)CCn1ccnc1-c1cccc(Br)c1 gave 16.93%.
Cn1cnnc1SCCNC(=O)Cc1cccnc1 gave -6.888%.
CN1CN(c2cccc(F)c2C#N)CC1=O gave -4.384%.

For reference, 2 entries once more:

- CS(=O)(=O)CCn1ccnc1-c1cccc(Br)c1 | 16.93%
- CC(C)C(CCO)NC(=O)c1nccc2ccccc12 (stereo not given) | 6.898%